Common to all, as to assay: odorant receptor activation (CRE luciferase / Renilla) (fold of no-odor wells); higher = more activation
Holding throughout (conditions): 100 µM

For experiment [1], the system named is OR4K13 clone 1266.
Experiment [2] has as its system OR4K14 clone 1276.
Experiment [3] deals with OR4K17 clone 1319.
The subject of experiment [4] is OR4K17 clone 1420.
Experiment [5] relates to OR4K2 clone 1258.
Experiment [6] relates to OR4K3 clone 1259.
Experiment [7] concerns OR4K5 clone 1261.
The subject of experiment [8] is OR4L1 R52S clone 1265.
Experiment [9] relates to OR4M2 clone 1278.
Experiment [10] concerns OR4N2 clone 1270.
The subject of experiment [11] is OR4N4 clone 1277.
Experiment [12] relates to OR4N5 clone 1262.
The test system of experiment [13] is OR4P4 R231C clone 1398.
Experiment [14] relates to OR4P4 clone 1139.
Experiment [15] concerns OR4Q3 clone 1411.
For experiment [16], the system named is OR4S1 clone 1283.
Experiment [17] has as its system OR4S2 clone 1175.
Experiment [18] concerns OR4X2 clone 1193.
In experiment [19] the test system is OR4K15 N65S/E88V/S93A/A231E/L280P/I286M clone 1566.
The subject of experiment [20] is OR4M1 clone 1559.

Molecules are shown by their SMILES. Values joined by “and” are separate entries in the source; they are usually repeats but may differ in a detail not shown here. Equal entries are not always repeated. This is one part of the list. Each value is one well over the wells without odorant, computed here; the data are noisy.

For `CC1=NC(C)SC1C` (centres undefined), the odorant receptor activation in [1] is 1.27; in experiment [2], 1.37; in [3], 1.95; in experiment [4] it was 1.02; in experiment [5], 0.591; in [6] it was 1.44. Also, the odorant receptor activation in [7] worked out at 2.22; in experiment [8] it was 2.19; in [9] it was 0.406; in [10] it was 1.43; in [11], 0.529; in experiment [12] it was 1.21. For the same molecule, the odorant receptor activation in [13] came to 0.823; in [14], 0.59; in [15], 1.41; in [16], 0.662; in [17], 0.725; in experiment [18], 1.1.

As to `C=C(C)C1CC=CCC1` (centres undefined) [r-limonene], the odorant receptor activation in experiment [1] is 0.711 and 0.635; in experiment [2], 0.806 and 0.387; in experiment [19], 0.994; in experiment [3], 0.763 and 0.34; in experiment [4], 1.23 and 0.941; in experiment [6], 0.822 and 0.378. In addition, the odorant receptor activation was 0.584 and 0.343 in experiment [7]; 1.02 and 1.25 in experiment [8]; 1.09 in experiment [20]; 0.946 and 0.415 in experiment [10]; 0.759 and 0.46 in experiment [12]; 1.02 and 0.762 in experiment [13]. In addition, the odorant receptor activation in experiment [14] is 1.03 and 0.517; in experiment [15], 1.43 and 1.34; in experiment [18], 0.937 and 0.724.

`C=CCc1ccc(OC)c(OC)c1` [eugenol methyl ether]: the odorant receptor activation came out at 1.63 in experiment [1]; 1.73 in [2]; 0.648 in experiment [19]; 1.43 in experiment [3]; 1.39 in experiment [4]; 1.99 in [5]. Further, the odorant receptor activation was determined as 1.62 in experiment [6]; 1.35 in experiment [7]; 1.52 in experiment [8]; 0.726 in experiment [20]; 1.58 in experiment [9]; 2.06 in experiment [10]. Also, the odorant receptor activation in experiment [11] was found to be 1.54; in experiment [12] it was 2.07; in experiment [13], 1.49; in [14], 1.4; in experiment [15], 1.53; in experiment [16], 1.74. For the same molecule, the odorant receptor activation in experiment [17] and in experiment [18] was 1.28 in each case.

As for `c1cnccn1` [pyrazine], the odorant receptor activation in experiment [1] worked out at 0.587; in experiment [2], 0.717; in experiment [19], 1.17; in experiment [3], 0.802; in experiment [4], 1.17; in experiment [5], 0.812. Besides, the odorant receptor activation in experiment [6] came to 0.797; in experiment [7] it was 0.563; in experiment [8], 0.784; in experiment [20], 0.759; in [9] it was 0.885; in experiment [10], 0.856. For the same molecule, the odorant receptor activation turned out to be 0.852 in [11]; 0.686 in experiment [12]; 0.963 in experiment [13]; 0.89 in experiment [14]; 1.36 in [15]; 0.766 in experiment [16]. The odorant receptor activation worked out at 0.974 in experiment [17] and 0.885 in experiment [18].

Turning to `CC1CCC(C(C)C)C(O)C1` (single isomer, unassigned; (+)) [(+)-menthol], the odorant receptor activation worked out at 0.871 in experiment [1]; 0.662 in [2]; 1.18 in experiment [19]; 1.2 in experiment [3]; 1.06 in [4]; 1.28 in experiment [5]. The odorant receptor activation in experiment [6] was determined as 0.676; in experiment [7] it was 0.893; in experiment [8], 1.2; in experiment [20], 1.21; in experiment [9], 0.982; in experiment [10] it was 0.787. Also, the odorant receptor activation in experiment [11] stood at 0.901; in [12], 0.815; in experiment [13], 1.17; in experiment [14] it was 1.23; in [15] it was 0.996; in experiment [16], 0.815. Besides, the values for the odorant receptor activation in experiment [17] and in experiment [18] were 1.21 and 1.48, respectively.

As for `CC=Cc1ccc(O)c(OC)c1` [isoeugenol], the odorant receptor activation in [1] was 1.42 and 0.875; in experiment [2] it was 1.54 and 1.02; in experiment [19] it was 4.7; in experiment [3], 0.865 and 1.36; in experiment [4], 1.53; in experiment [5], 1.57 and 0.833. Moreover, the odorant receptor activation is 1.72 and 1.55 in [6]; 1.12 and 1.93 in experiment [7]; 1.05 and 1.08 in experiment [8]; 0.788 in experiment [20]; 1.7 and 1.24 in experiment [9]; 1.3 and 1.11 in [10]. In addition, the odorant receptor activation in [11] is 1.06 and 1.3; in experiment [12], 1.22 and 0.864; in [13], 1.17; in experiment [14], 0.77; in experiment [15], 1.36; in [16], 1.26 and 1.96. For the same molecule, the odorant receptor activation came to 1.57 in experiment [17] and 0.856 in [18].

In the case of `COc1cc(C=O)ccc1O` [vanillin], the odorant receptor activation in [1] amounted to 0.83; in experiment [2] it was 1.03; in [19] it was 0.713; in experiment [3] it was 0.974; in experiment [4], 1; in experiment [5], 0.988. Also, the odorant receptor activation in experiment [6] was 0.978; in experiment [7], 0.785; in experiment [8], 1.07; in experiment [20] it was 1.12; in experiment [9], 1.37; in [10], 1.06. Besides, the odorant receptor activation in experiment [11] is 1.27; in experiment [12], 1.09; in [13] it was 0.773; in experiment [14], 1.18; in experiment [15] it was 0.897; in experiment [16] it was 0.779. The odorant receptor activation in experiment [17] amounted to 1.09; in experiment [18], 1.05.

Turning to `C=CCSCC=C` [diallyl sulfide], the odorant receptor activation in experiment [1] was determined as 1.17; in experiment [2] it was 0.925; in experiment [19], 1.55; in experiment [3], 1.28; in experiment [4] it was 1.25; in experiment [5], 1.04. In addition, the odorant receptor activation stood at 1.21 in [6]; 0.886 in experiment [7]; 0.847 in experiment [8]; 0.837 in [20]; 1.19 in experiment [9]; 0.992 in experiment [10]. Moreover, the odorant receptor activation in experiment [11] worked out at 0.769; in experiment [12], 1.43; in [13] it was 0.907; in experiment [14] it was 0.914; in experiment [15], 1.37; in [16], 1.03. Moreover, the odorant receptor activation is 1.02 in experiment [17] and 0.98 in [18].

As to `CC(C)(C)c1ccc(CCC=O)cc1` [bourgeonal], the odorant receptor activation in experiment [1] amounted to 0.718; in experiment [2], 0.828; in experiment [3], 0.602; in experiment [4], 0.167; in experiment [5] it was 0.921; in [6], 0.782. For the same molecule, the odorant receptor activation amounted to 0.856 in experiment [7]; 0.617 in experiment [8]; 0.767 in experiment [9]; 0.903 in [10]; 0.778 in experiment [11]; 0.784 in experiment [12]. Moreover, the odorant receptor activation in [13] was 0.162; in [14] it was 0.831; in experiment [15], 0.209; in experiment [16] it was 0.757; in experiment [17], 0.73; in experiment [18], 0.778.

Regarding `CCCCCC(C)=O` [2-heptanone], the odorant receptor activation amounted to 3.8 in experiment [1]; 0.901 in [2]; 2.57 in experiment [3]; 0.907 in [4]; 2.74 in experiment [5]; 1.25 in experiment [6]. Also, the odorant receptor activation was 2.05 in [7]; 5.41 in experiment [8]; 0.376 in experiment [9]; 1.59 in [10]; 0.479 in [11]; 1.53 in experiment [12]. Also, the odorant receptor activation in [13] came to 0.882; in experiment [14] it was 1.09; in experiment [15] it was 1.14; in experiment [16] it was 0.657; in [17], 1.32; in experiment [18], 1.4.

Consider `O=C1CCCCCCCCCCCCCCO1` [pentadecalactone], for which the odorant receptor activation came out at 0.666 in experiment [1]; 0.668 in [2]; 0.917 in experiment [19]; 0.853 in [3]; 1.18 in experiment [4]; 0.657 in experiment [5]. Besides, the odorant receptor activation in experiment [6] worked out at 0.811; in experiment [7] it was 0.652; in [8], 0.665; in [20] it was 0.766; in [9], 0.69; in [10] it was 0.853. Further, the odorant receptor activation was 0.818 in experiment [11]; 0.702 in [12]; 0.91 in [13]; 0.735 in experiment [14]; 1.13 in experiment [15]; 0.737 in [16]. Moreover, the odorant receptor activation in experiment [17] stood at 0.793; in experiment [18], 0.743.

For the molecule `CC(=O)C(C)=O` [diacetyl], the odorant receptor activation in [1] was determined as 1.13; in experiment [2] it was 1.24; in experiment [19], 1.35; in [3], 1.29; in [4], 1.12; in experiment [5], 1.25. Moreover, the odorant receptor activation in [6] came out at 1.08; in experiment [7], 0.983; in experiment [8] it was 0.918; in [20], 0.773; in experiment [9], 1.28; in experiment [10] it was 1.18. Besides, the odorant receptor activation came out at 0.848 in experiment [11]; 1.35 in [12]; 1.36 in experiment [13]; 1.08 in experiment [14]; 1.37 in [15]; 1.23 in experiment [16]. Further, the odorant receptor activation in [17] is 1.14; in [18], 1.03.

For `CC12C=CCC1C1CCC3CC(=O)CCC3(C)C1CC2` (centres undefined) [androstenone], the odorant receptor activation in [1] turned out to be 1.02; in experiment [2], 1.31; in experiment [3] it was 0.959; in [4] it was 0.788; in experiment [5] it was 1.59; in experiment [6], 1.01. Moreover, the odorant receptor activation turned out to be 1.37 in [7]; 1.81 in [8]; 1.24 in experiment [9]; 1.03 in experiment [10]; 0.904 in experiment [11]; 1.07 in experiment [12]. For the same molecule, the odorant receptor activation is 1.26 in experiment [13]; 4.94 in [14]; 0.79 in [15]; 1.18 in [16]; 3.58 in experiment [17]; 5.79 in [18].

Regarding `CCCCCCC=O` [heptaldehyde], the odorant receptor activation in experiment [1] was 0.557 and 0.831 and 1; in [19] it was 0.928; in experiment [3] it was 1.25 and 0.722 and 0.911; in [4], 0.883 and 0.833; in experiment [5] it was 0.413 and 1.19 and 0.706; in [6] it was 0.531 and 1.13 and 0.737. The odorant receptor activation in [7] is 0.838 and 0.835 and 1.03; in experiment [8], 1.2 and 0.817 and 0.92; in experiment [20], 0.872; in experiment [10], 0.599 and 1.1 and 1.12; in experiment [11], 0.295 and 0.882 and 0.609; in experiment [12], 1.2 and 1.03 and 0.813. The odorant receptor activation in experiment [13] is 0.894 and 0.664; in experiment [14], 0.357 and 0.68; in [15] it was 1.22 and 0.816; in experiment [17], 0.329 and 0.912; in experiment [18] it was 0.461 and 0.892.
